Data: the supplement of paper PMC6078165
The reference is the same well before dosing, and untreated signal decays as well.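 The cancer cells are triple-negative breast cancer lines of basal-like or mesenchymal-like type, grown without fibroblasts. A drop in red signal reflects loss of mitochondrial integrity, a stand-in for apoptotic death.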

Tests used:
Assay in all cases: relative JC-1 red fluorescence (viability) vs pre-drug, monoculture (fraction); higher = more viable cancer cells
Conditions in all cases: coculture fibroblast: none (monoculture)
BT20 = test system: BT20
Experimental: (§1)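 JC-1 labelled TNBC cells grown in monoculture (density kept equal with unlabelled cancer cells) in 384-well plates in FluoroBrite medium, treated with one of 42 anticancer drugs at 0.1, 1, 10 or 100 uM. JC-1 red fluorescence (mitochondrial integrity, surrogate of apoptotic death) was read by plate reader every 8 h for 72 h. Values are normalised to each well's pre-drug value, with background from alamethicin. The stock of one drug was tenfold lower, so its dose labels may be too high. Monoculture values are repeated alongside each fibroblast plate and are averaged here.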

MDAMB231 = test system: MDAMB231
Experimental: as §1

MDAMB436 = test system: MDAMB436
Experimental: as §1

MDAMB468 = test system: MDAMB468
Experimental: as §1

CO[C@H]1C[C@@H]2CC[C@@H](C)[C@@](O)(O2)C(=O)C(=O)N2CCCC[C@H]2C(=O)O[C@H]([C@H](C)C[C@@H]2CC[C@@H](OCCO)[C@H](OC)C2)CC(=O)[C@H](C)/C=C(\C)[C@@H](O)[C@@H](OC)C(=O)[C@H](C)C[C@H](C)/C=C/C=C/C=C/1C [Everolimus]
relative JC-1 red fluorescence
Conditions	8 h	16 h	24 h	32 h	40 h	48 h	56 h	64 h	72 h
BT20, 0.1 µM	0.955	0.871	0.776	0.711	0.672	0.639	0.612	0.586	0.562
BT20, 1 µM	0.927	0.866	0.79	0.751	0.728	0.71	0.69	0.672	0.666
BT20, 10 µM	0.9457	0.8776	0.823	0.773	0.735	0.707	0.677	0.649	0.634
BT20, 100 µM	0.928	0.885	0.753	0.572	0.425	0.324	0.2501	0.218	0.208
MDAMB231, 0.1 µM	0.776	0.701	0.724	0.69	0.671	0.6888	0.6708	0.706	0.707
MDAMB231, 1 µM	0.761	0.738	0.602	0.636	0.597	0.575	0.54	0.536	0.531
MDAMB231, 10 µM	0.7824	0.821	0.854	0.8676	0.8455	0.8365	0.8242	0.85	0.835
MDAMB231, 100 µM	0.894	0.807	0.81	0.935	0.868	0.834	0.715	0.788	0.775
MDAMB436, 0.1 µM	0.865	0.704	0.72	0.663	0.639	0.632	0.621	0.622	0.627
MDAMB436, 1 µM	0.8804	0.816	0.808	0.767	0.756	0.759	0.762	0.758	0.755
MDAMB436, 10 µM	0.928	0.943	0.871	0.958	0.886	0.813	0.803	0.933	0.789
MDAMB436, 100 µM	0.831	0.832	0.811	0.7334	0.832	0.883	0.753	0.6716	0.62
MDAMB468, 0.1 µM	0.8829	0.7914	0.719	0.656	0.627	0.614	0.584	0.571	0.558
MDAMB468, 1 µM	0.884	0.819	0.771	0.708	0.675	0.668	0.653	0.639	0.633
MDAMB468, 10 µM	0.937	0.8762	0.83962	0.7642	0.734	0.714	0.6718	0.65241	0.6325
MDAMB468, 100 µM	0.818	0.8502	0.783	0.757	0.663	0.574	0.498	0.428	0.369
